Source: PubChem BioAssay AID1259354 (Paczesny and Yang Labs, IUPUI and University of Michigan, 2018)
The campaign covered roughly 78,000 compounds. About 1,800 (2.3%) were called active. The shares of active, inactive and inconclusive entries below differ from those in the screen. Cut-off read from the data, not from the text of the source: active = inhibition above about 30%; inconclusive = mostly about 10% to 28%; inactive = weaker than that.

Amino acid sequences for entries named in this document (tags omitted). A change or cut given only in a name is not applied to a line headed by its entry.
UniProt Q01638: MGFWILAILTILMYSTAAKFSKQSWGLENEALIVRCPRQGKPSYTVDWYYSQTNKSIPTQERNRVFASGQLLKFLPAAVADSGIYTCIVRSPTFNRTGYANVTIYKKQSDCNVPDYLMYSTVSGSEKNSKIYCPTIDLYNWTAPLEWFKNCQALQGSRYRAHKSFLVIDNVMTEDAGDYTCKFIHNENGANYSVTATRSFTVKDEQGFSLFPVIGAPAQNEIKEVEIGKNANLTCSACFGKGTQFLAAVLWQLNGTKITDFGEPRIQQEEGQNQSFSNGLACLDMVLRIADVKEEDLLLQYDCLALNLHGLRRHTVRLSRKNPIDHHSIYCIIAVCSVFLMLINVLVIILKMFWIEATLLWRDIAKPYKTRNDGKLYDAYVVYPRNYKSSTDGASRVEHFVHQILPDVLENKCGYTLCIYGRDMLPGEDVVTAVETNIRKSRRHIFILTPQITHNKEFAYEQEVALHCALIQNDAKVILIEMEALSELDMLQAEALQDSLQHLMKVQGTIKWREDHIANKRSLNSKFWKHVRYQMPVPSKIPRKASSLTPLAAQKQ

These molecules were tested against Interleukin-1 receptor-like 1 (Homo sapiens) (UniProt Q01638) (assay: blocks human ST2 binding to IL-33, primary screen, biochemical, AlphaLISA (AID 1259354)). Conditions: AlphaLISA ST2-Fc/biotin-IL-33 interaction, 1 h; at 17 µM, stronger effect = higher value.
In the case of `Cc1ccc(/C=c2\sc3nnc(-c4ccccc4Cl)n3c2=O)o1`, the inhibition is reported as active: 37%. In the case of `CCOc1ccc(C2Oc3c(cc(Br)cc3OC)C=C2[N+](=O)[O-])cc1OC` (configuration not stated), the inhibition is reported as active: 36%. `COc1ccc(OC)c(NC(=O)c2ccc(I)cc2)c1` was tested, and the inhibition was inconclusive: 27%. `CCSc1nnc2c(n1)OC(CC)N(C(=O)CC)c1ccccc1-2` (configuration not stated) was tested, and the inhibition was inconclusive: 27%. With `C=CCN1C(=O)C(C#N)=C(C)/C(=C\c2ccc(-c3ccc4c(c3)COC4=O)o2)C1=O` the inhibition was inconclusive: 22%. For `Cc1ccc(-n2ccc(N)c(C#N)c2=O)cc1`, the inhibition was “inactive”. In the case of `O=C1c2ccccc2C(=O)c2cc(S(=O)(=O)NCc3ccco3)ccc21`, the inhibition is reported as inconclusive: 15%. `COc1ccc(N2CCN(C(c3cccs3)C(C)NS(C)(=O)=O)CC2)cc1` (configuration not stated) was tested, and the inhibition was inconclusive: 18%. For `CC(C)c1cc(CN(C)C(=O)c2cnn3ccn(C)c23)on1`, the inhibition was “inactive”. In the case of `CCN(CC)C(=NS(=O)(=O)c1ccc(C)cc1C)c1ccccc1`, the inhibition is reported as inconclusive: 19%. For `Cc1c(C(=O)O)cccc1-c1ccc(/C=C/[N+](=O)[O-])o1`, the inhibition was active: 61%. `CCCCc1cc(C[C@H]2CNCC[C@H]2CC(=O)NCCN2CCOCC2)no1` was tested, and the inhibition was inconclusive: 28%. For `OC1(c2ccc(Cl)cc2)CCN(Cc2nc(Cc3ccccc3F)no2)CC1`, the inhibition was “inactive”. In the case of `COc1ccccc1C(=O)Nc1nc2ccc(C)cc2s1`, the inhibition is reported as inconclusive: 12%. For `COc1ccc(N(CC(=O)Nc2cccc([N+](=O)[O-])c2)S(C)(=O)=O)cc1OC`, the inhibition was inconclusive: 11%. With `CC(=O)c1ccc(NC(=O)CC2SC(N)=NC2=O)cc1` (configuration not stated) the inhibition was inconclusive: 19%. `CC(=O)c1cccc(NC(=O)C2CC2(c2ccccc2)c2ccccc2)c1` (configuration not stated) was tested, and the inhibition was inconclusive: 13%. For `COc1ccc2oc(=N)c(C(=O)Nc3ccc(C)cc3)cc2c1`, the inhibition was inconclusive: 14%. With `CC(=O)c1cccc(Nc2c3c(nc4ccccc24)CCC3)c1` the inhibition was inconclusive: 11%. In the case of `Nc1nonc1-c1noc(Cn2nnc3ccccc32)n1`, the inhibition is reported as “inactive”. For `Cc1cnc(C(=O)NC2CC(=O)N(CCCc3ccccc3)C2)cn1` (configuration not stated), the inhibition was inconclusive: 19%. For `CCOC(=O)c1nn(CCC(F)(F)F)c2c1CN(C(=O)CSc1ccccc1)CC2`, the inhibition was inconclusive: 20%. In the case of `CC(=O)Nn1nc2cc3nnnc3cc2[nH]1`, the inhibition is reported as “inactive”. With `Cc1cc(C)n(-c2n[nH]c(=O)c3ccccc23)n1` the inhibition was “inactive”. `CC(Oc1cccc(Cl)c1)C(=O)Nc1ccc([N+](=O)[O-])cc1Cl` (configuration not stated) was tested, and the inhibition was inconclusive: 27%. For `COc1nccnc1-c1cccc(CN2CCOCC2)c1`, the inhibition was “inactive”. In the case of `Cc1cccc(C(=O)NC(C)c2cnc(-c3ccncc3)nc2C)n1` (configuration not stated), the inhibition is reported as inconclusive: 11%.
